# From PMC7255043
# Protein sequences, listed by entry. Tags and fused reporters are not part of them.
# UniProt Q92878: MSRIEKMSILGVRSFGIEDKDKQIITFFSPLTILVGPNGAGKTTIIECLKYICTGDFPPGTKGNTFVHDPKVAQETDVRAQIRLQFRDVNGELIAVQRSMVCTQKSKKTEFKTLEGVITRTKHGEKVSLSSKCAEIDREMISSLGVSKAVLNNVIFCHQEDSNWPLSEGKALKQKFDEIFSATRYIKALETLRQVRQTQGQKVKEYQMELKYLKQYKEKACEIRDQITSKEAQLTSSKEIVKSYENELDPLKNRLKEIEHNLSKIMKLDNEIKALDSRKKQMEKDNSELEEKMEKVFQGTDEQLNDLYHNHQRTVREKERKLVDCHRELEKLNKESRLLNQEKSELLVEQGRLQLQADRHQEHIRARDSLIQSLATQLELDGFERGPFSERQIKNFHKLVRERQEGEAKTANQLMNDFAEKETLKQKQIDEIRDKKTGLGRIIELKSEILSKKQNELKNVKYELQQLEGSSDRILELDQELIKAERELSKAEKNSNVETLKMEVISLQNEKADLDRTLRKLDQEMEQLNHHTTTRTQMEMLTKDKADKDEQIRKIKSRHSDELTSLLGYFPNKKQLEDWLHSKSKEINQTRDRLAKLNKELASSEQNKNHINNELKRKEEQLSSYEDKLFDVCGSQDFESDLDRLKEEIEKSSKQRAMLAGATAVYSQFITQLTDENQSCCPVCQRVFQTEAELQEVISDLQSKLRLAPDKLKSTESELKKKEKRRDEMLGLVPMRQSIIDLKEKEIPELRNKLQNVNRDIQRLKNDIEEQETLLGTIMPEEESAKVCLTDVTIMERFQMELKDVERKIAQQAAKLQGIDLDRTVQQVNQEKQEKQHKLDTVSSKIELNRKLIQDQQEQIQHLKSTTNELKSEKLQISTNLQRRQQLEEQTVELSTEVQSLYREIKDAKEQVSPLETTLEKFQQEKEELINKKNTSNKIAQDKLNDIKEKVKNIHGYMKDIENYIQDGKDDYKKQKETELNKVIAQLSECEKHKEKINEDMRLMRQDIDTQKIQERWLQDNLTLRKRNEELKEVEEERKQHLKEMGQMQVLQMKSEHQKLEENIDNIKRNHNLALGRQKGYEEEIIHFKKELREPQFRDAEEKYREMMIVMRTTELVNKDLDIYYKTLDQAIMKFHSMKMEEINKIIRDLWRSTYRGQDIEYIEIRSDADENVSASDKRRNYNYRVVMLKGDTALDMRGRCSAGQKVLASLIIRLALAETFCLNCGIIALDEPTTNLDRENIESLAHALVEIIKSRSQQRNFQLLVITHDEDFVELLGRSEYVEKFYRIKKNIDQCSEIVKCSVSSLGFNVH
# UniProt Q9H2G2: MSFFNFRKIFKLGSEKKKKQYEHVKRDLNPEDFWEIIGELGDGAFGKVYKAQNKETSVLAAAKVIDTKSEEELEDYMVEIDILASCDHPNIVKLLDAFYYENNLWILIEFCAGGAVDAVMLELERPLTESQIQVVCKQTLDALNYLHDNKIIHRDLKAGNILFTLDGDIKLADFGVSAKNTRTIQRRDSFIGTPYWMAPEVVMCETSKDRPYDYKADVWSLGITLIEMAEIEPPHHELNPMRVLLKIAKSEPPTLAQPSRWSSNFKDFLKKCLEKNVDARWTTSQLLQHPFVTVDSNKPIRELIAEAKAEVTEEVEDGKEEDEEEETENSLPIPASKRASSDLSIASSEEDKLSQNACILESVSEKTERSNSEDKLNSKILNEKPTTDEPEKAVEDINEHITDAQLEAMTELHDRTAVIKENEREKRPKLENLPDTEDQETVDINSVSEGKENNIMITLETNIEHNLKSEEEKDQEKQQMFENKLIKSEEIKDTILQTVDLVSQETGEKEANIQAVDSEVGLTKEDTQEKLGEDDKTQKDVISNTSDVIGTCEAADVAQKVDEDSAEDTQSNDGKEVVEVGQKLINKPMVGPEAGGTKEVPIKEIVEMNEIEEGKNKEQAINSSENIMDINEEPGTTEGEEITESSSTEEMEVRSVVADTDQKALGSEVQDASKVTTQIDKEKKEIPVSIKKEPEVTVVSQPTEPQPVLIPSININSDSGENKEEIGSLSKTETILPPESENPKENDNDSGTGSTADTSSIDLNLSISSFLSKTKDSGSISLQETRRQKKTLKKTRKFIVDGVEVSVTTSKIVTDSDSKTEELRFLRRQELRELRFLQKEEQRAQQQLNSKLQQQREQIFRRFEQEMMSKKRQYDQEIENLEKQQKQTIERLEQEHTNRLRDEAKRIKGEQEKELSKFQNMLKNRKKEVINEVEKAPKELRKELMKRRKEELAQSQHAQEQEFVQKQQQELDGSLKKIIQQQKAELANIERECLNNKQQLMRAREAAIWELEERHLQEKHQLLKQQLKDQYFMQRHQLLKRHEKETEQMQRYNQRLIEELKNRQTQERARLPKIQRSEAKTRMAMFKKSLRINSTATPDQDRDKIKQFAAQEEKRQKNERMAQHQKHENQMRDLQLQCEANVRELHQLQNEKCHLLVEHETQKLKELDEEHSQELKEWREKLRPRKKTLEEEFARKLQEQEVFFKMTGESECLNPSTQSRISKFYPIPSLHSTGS
# UniProt Q13177: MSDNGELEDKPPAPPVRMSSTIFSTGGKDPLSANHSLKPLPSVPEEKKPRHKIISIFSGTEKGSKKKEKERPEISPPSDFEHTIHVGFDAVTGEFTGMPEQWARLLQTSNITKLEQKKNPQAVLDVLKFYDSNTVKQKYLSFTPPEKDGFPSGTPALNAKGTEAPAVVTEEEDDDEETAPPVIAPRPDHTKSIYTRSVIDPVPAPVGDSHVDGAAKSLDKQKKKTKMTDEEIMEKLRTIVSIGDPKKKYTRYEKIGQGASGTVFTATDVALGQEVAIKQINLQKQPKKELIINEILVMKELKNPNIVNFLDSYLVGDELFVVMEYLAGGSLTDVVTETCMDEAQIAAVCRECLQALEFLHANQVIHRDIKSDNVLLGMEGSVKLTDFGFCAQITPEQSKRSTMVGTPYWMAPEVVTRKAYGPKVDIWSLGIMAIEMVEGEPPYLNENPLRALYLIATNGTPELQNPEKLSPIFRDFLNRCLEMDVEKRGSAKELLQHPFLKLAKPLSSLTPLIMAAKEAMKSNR
# Target: cyclin-dependent kinase 12 (human (endogenous in SNU-1)) (UniProt Q9NYV4)
# Assay: affinity purification with mass spectrometry; SNU-1 cell lysates incubated with normal IgG or anti-CDK12 antibody; complex pulled down by Protein A/G beads, SDS/PAGE, trypsin digestion, mass spectrometry
row,Molecule,binding
1,EGFR (from UniProt P00533 25-1210),binds
2,RAD50 (from UniProt Q92878 1-1312),binds
3,SLK (from UniProt Q9H2G2 1-1235),binds
4,p21 activated kinase 2 (from UniProt Q13177 1-524),binds
5,"HK1 (protein, UniProt P19367 1-917) MIAAQLLAYYFTELKDDQVKKIDKYLYAMRLSDETLIDIMTRFRKEMKNGLSRDFNPTATVKMLPTFVRSIPDGSEKGDFIALDLGGSSFRILRVQVNHEKNQNVHMESEVYDTPENIVHGSGSQLFDHVAECLGDFMEKRKIKDKKLPVGFTFSFPCQQSKIDEAILITWTKRFKASGVEGADVVKLLNKAIKKRGDYDANIVAVVNDTVGTMMTCGYDDQHCEVGLIIGTGTNACYMEELRHIDLVEGDEGRMCINTEWGAFGDDGSLEDIRTEFDREIDRGSLNPGKQLFEKMVSGMYLGELVRLILVKMAKEGLLFEGRITPELLTRGKFNTSDVSAIEKNKEGLHNAKEILTRLGVEPSDDDCVSVQHVCTIVSFRSANLVAATLGAILNRLRDNKGTPRLRTTVGVDGSLYKTHPQYSRRFHKTLRRLVPDSDVRFLLSESGSGKGAAMVTAVAYRLAEQHRQIEETLAHFHLTKDMLLEVKKRMRAEMELGLRKQTHNNAVVKMLPSFVRRTPDGTENGDFLALDLGGTNFRVLLVKIRSGKKRTVEMHNKIYAIPIEIMQGTGEELFDHIVSCISDFLDYMGIKGPRMPLGFTFSFPCQQTSLDAGILITWTKGFKATDCVGHDVVTLLRDAIKRREEFDLDVVAVVNDTVGTMMTCAYEEPTCEVGLIVGTGSNACYMEEMKNVEMVEGDQGQMCINMEWGAFGDNGCLDDIRTHYDRLVDEYSLNAGKQRYEKMISGMYLGEIVRNILIDFTKKGFLFRGQISETLKTRGIFETKFLSQIESDRLALLQVRAILQQLGLNSTCDDSILVKTVCGVVSRRAAQLCGAGMAAVVDKIRENRGLDRLNVTVGVDGTLYKLHPHFSRIMHQTVKELSPKCNVSFLLSEDGSGKGAALITAVGVRLRTEASS",binds

# These are yes or no findings as the source states them, for the method shown. Binding seen in cells or lysates may run through a third protein. A yes stands for co-enrichment or nearness to the bait. Other partners may have been found.
